The other results are listed elsewhere or left out.
Legend:
Assay in all cases: glycan array binding signal (z-score within array); higher = stronger binding
Conditions in all cases: glycan notation: IUPAC condensed, linker removed
[1] = target: Fuc(a1-2)Gal
Procedure, shortened: (§1)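 The binding signal is a Z-score computed within each array and averaged over linkers. Arrays of the same protein sequence at different concentrations or buffers were also averaged together. Data originate from 3228 arrays in the Consortium for Functional Glycomics database, kept only where the protein sequence was available.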

[2] = target: Fuc(a1-2)Gal(b1-3)GalNAc
Procedure, shortened: as §1

[3] = target: Fuc(a1-2)Gal(b1-3)GalNAc(a1-3)[Fuc(a1-2)]Gal(b1-4)Glc
Procedure, shortened: as §1

[4] = target: Fuc(a1-2)Gal(b1-3)GalNAc(a1-3)[Fuc(a1-2)]Gal(b1-4)GlcNAc
Procedure, shortened: as §1

[5] = target: Fuc(a1-2)Gal(b1-3)GalNAc(b1-3)Gal
Procedure, shortened: as §1

[6] = target: Fuc(a1-2)Gal(b1-3)GalNAc(b1-3)Gal(a1-4)Gal(b1-4)Glc
Procedure, shortened: as §1

[7] = target: Fuc(a1-2)Gal(b1-3)GalNAc(b1-4)[Neu5Ac(a2-3)]Gal(b1-4)Glc
Procedure, shortened: as §1

[8] = target: Fuc(a1-2)Gal(b1-3)GlcNAc
Procedure, shortened: as §1

[9] = target: Fuc(a1-2)Gal(b1-3)GlcNAc(b1-2)Man(a1-3)[Fuc(a1-2)Gal(b1-3)GlcNAc(b1-2)Man(a1-6)]Man(b1-4)GlcNAc(b1-4)GlcNAc
Procedure, shortened: as §1

[10] = target: Fuc(a1-2)Gal(b1-3)GlcNAc(b1-2)Man(a1-3)[Fuc(a1-2)Gal(b1-3)GlcNAc(b1-2)Man(a1-6)]Man(b1-4)GlcNAc(b1-4)[Fuc(a1-6)]GlcNAc
Procedure, shortened: as §1

[11] = target: Fuc(a1-2)Gal(b1-3)GlcNAc(b1-3)Gal(b1-4)Glc
Procedure, shortened: as §1

[12] = target: Fuc(a1-2)Gal(b1-3)GlcNAc(b1-3)GalNAc
Procedure, shortened: as §1

[13] = target: Fuc(a1-2)Gal(b1-3)GlcNAc(b1-3)[Fuc(a1-3)[Gal(b1-4)]GlcNAc(b1-6)]Gal(b1-4)Glc
Procedure, shortened: as §1

[14] = target: Fuc(a1-2)Gal(b1-3)GlcNAc(b1-3)[Gal(b1-4)GlcNAc(b1-6)]Gal(b1-4)Glc
Procedure, shortened: as §1

[15] = target: Fuc(a1-2)Gal(b1-3)[Fuc(a1-4)]GlcNAc
Procedure, shortened: as §1

[16] = target: Fuc(a1-2)Gal(b1-3)[Fuc(a1-4)]GlcNAc(b1-2)Man(a1-3)[Fuc(a1-2)Gal(b1-3)[Fuc(a1-4)]GlcNAc(b1-2)Man(a1-6)]Man(b1-4)GlcNAc(b1-4)GlcNAc
Procedure, shortened: as §1

[17] = target: Fuc(a1-2)Gal(b1-3)[Fuc(a1-4)]GlcNAc(b1-3)[Fuc(a1-3)[Gal(b1-4)]GlcNAc(b1-6)]Gal(b1-4)Glc
Procedure, shortened: as §1

[18] = target: Fuc(a1-2)Gal(b1-3)[Fuc(a1-4)]GlcNAc(b1-3)[Gal(b1-4)GlcNAc(b1-6)]Gal(b1-4)Glc
Procedure, shortened: as §1

[19] = target: Fuc(a1-2)Gal(b1-4)Glc
Procedure, shortened: as §1

[20] = target: Fuc(a1-2)Gal(b1-4)Glc6S
Procedure, shortened: as §1

[21] = target: Fuc(a1-2)Gal(b1-4)GlcNAc
Procedure, shortened: as §1

[22] = target: Fuc(a1-2)Gal(b1-4)GlcNAc(b1-2)Man(a1-3)[Fuc(a1-2)Gal(b1-4)GlcNAc(b1-2)Man(a1-6)]Man(b1-4)GlcNAc(b1-4)GlcNAc
Procedure, shortened: as §1

[23] = target: Fuc(a1-2)Gal(b1-4)GlcNAc(b1-2)Man(a1-3)[Fuc(a1-2)Gal(b1-4)GlcNAc(b1-2)Man(a1-6)]Man(b1-4)GlcNAc(b1-4)[Fuc(a1-6)]GlcNAc
Procedure, shortened: as §1

[24] = target: Fuc(a1-2)Gal(b1-4)GlcNAc(b1-2)[Fuc(a1-2)Gal(b1-4)GlcNAc(b1-4)]Man(a1-3)[Fuc(a1-2)Gal(b1-4)GlcNAc(b1-2)Man(a1-6)]Man(b1-4)GlcNAc(b1-4)GlcNAc
Procedure, shortened: as §1

[25] = target: Fuc(a1-2)Gal(b1-4)GlcNAc(b1-3)Gal(b1-4)GlcNAc
Procedure, shortened: as §1

[26] = target: Fuc(a1-2)Gal(b1-4)GlcNAc(b1-3)Gal(b1-4)GlcNAc(b1-3)Gal(b1-4)GlcNAc
Procedure, shortened: as §1

[27] = target: Fuc(a1-2)Gal(b1-4)GlcNAc(b1-3)GalNAc
Procedure, shortened: as §1

[28] = target: Fuc(a1-2)Gal(b1-4)GlcNAc6S
Procedure, shortened: as §1

[29] = target: Fuc(a1-2)Gal(b1-4)[Fuc(a1-3)]GlcNAc
Procedure, shortened: as §1

[30] = target: Fuc(a1-2)Gal(b1-4)[Fuc(a1-3)]GlcNAc(b1-2)Man(a1-3)[Fuc(a1-2)Gal(b1-4)[Fuc(a1-3)]GlcNAc(b1-2)Man(a1-6)]Man(b1-4)GlcNAc(b1-4)GlcNAc
Procedure, shortened: as §1

B1: pullulanase (Streptococcus pyogenes), Q8KLP1 (protein)
chain: MKKKVNQGSKRYQYLLKKWGIGFVIAATGTVMLGCIPSILTHQVAAKTIVGLARDEAQQGDGNAKSGDGFQSSSKEAKPVLDSSSANPASIAEHHLRMHFKTLPAGESLGSLGLWVWGDVDQPSKDWPNGAITMTKAKKDDYGYYLDVPLAAKHRQQVSYLINNKAGENLSKDQHIPLLTPKMNEVWIDENYHAHAYRPLKKGYLRINYHNQSGHYDNLAVWTFKDVKTPTTDWPNGLDLSHKGPYGAYVDVPLKEGANEIGFLILDKSKTGDAIKVQPKDYLFKELDNHTQVFVKDTDPKVYNNPYYIDQVSLKGAEQTTPNEIKAIFTTLDGLDEDAVKQNIKITDKAGKTVAIDELTLDKDKSVMTLKGDFKAQGAVYTVTFGEVSQVARQSWQLKDKLYAYDGELGATLAKDGSVDLALWSPSADSVKVVVYDKQDQTKVVGQADLTKSDKGVWRAHLTSDSVKGISDYTGYYYLYEITRGQEKVMVLDPYAKSLAAWNDATATDDIKTAKAAFIDPSKLGPTGLDFAKINNFKKREDAIIYEAHVRDFTSDKALEGKLTHPFGTFSAFVEQLDYLKDLGVTHVQLLPVLSYFYANELDKTRSTAYTSSDNNYNWGYDPQHYFALSGMYSANPNDPALRIAELKNLVNEIHKRGMGVIFDVVYNHTARTYLFEDLEPNYYHFMNADGTARESFGGGRLGTTHAMSRRILVDSITYLTREFKVDGFRFDMMGDHDAAAIEQAFKAAKAINPNTIMIGEGWRTYQGDEGKKEIAADQDWMKATNTVGVFSDDIRNTLKSGFPNEGTAAFITGGAKNLEGLFKTIKAQPSNFEADAPGDVVQYIAAHDNLTLHDVIAKSINKDPKVAEEEIHKRIRLGNTMILTAQGTAFIHSGQEYGRTKQLLNPDYKTKVSDDKVPNKATLIDAVAQYPYFIHDSYDSSDAVNHFDWAKATDSIAHPISNQTKAYTQGLIALRRSTDAFTKATKAEVDRDVTLITQAGQDGIQQEDLIMGYQTVASNGDRYAVFVNADNKTRKVVLPQAYRYLLGAQVLADAEQVGVTAIAKPKGVQFTKEGLTIDGLTALVLKVSSKTANPSQQKSQTDNHQTKTPDGSKDLDKSLMTRPKRAKTNQKLPKTGEAPSKGLLAAGVALLLLAISLLMKRQKD
glycan array binding signal (z-score) [1]: -0.905 | glycan array binding signal (z-score) [2]: 0.446 | glycan array binding signal (z-score) [3]: -0.434 | glycan array binding signal (z-score) [4]: -0.378 | glycan array binding signal (z-score) [5]: 0.497 | glycan array binding signal (z-score) [6]: -0.524 | glycan array binding signal (z-score) [7]: -0.519 | glycan array binding signal (z-score) [8]: -1.34 | glycan array binding signal (z-score) [9]: -0.481 | glycan array binding signal (z-score) [10]: 1.26 | glycan array binding signal (z-score) [11]: -1.02 | glycan array binding signal (z-score) [12]: -0.031 | glycan array binding signal (z-score) [13]: 0.059 | glycan array binding signal (z-score) [14]: -0.997 | glycan array binding signal (z-score) [15]: 0.453 | glycan array binding signal (z-score) [16]: 0.391 | glycan array binding signal (z-score) [17]: 4.09 | glycan array binding signal (z-score) [18]: -1.13 | glycan array binding signal (z-score) [19]: 0.065 | glycan array binding signal (z-score) [20]: -0.911 | glycan array binding signal (z-score) [21]: 0.066 | glycan array binding signal (z-score) [22]: -0.238 | glycan array binding signal (z-score) [23]: -0.531 | glycan array binding signal (z-score) [24]: 0.076 | glycan array binding signal (z-score) [25]: 0.225 | glycan array binding signal (z-score) [26]: 1.6 | glycan array binding signal (z-score) [27]: 1.22 | glycan array binding signal (z-score) [28]: 1.06 | glycan array binding signal (z-score) [29]: -0.734 | glycan array binding signal (z-score) [30]: 1.48
